# Data as given in PubChem BioAssay AID1671195 (Yale University, 2021).
# Purpose: 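Genes whose knockdown alters LDL uptake in liver cancer cells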 (primary screen)
# System: human Huh7 hepatoma cells
# Knock-down reagent: siRNA pool against human genes, 18 nM
# Duration: about 2 to 2.5 days of knockdown, then 8 h LDL uptake
# Treatment: DiI-labelled LDL at 30 µg/ml for 8 h, in lipoprotein-deficient serum medium
# Measurement: 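Fluorescent LDL signal imaged in cells, scaled to the plate median, robust z-score for each replicate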
# Scale: robust z-score: higher = more LDL uptake after knockdown
# Hit rule: 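a gene counts as active if at least two replicate z-scores exceed ±2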
# This is one part, drawn at random, of about 22,000 reagents tested. Of all reagents, about 1,510 (6.9%) were called active. 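Active includes knockdowns raising or lowering LDL uptake; positive z-scores mean more uptake, negative mean less.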 The numbers tell different reagents against one gene apart. No sequences are given here.
"robust z-score, replicate 1","robust z-score, replicate 2","robust z-score, replicate 3",Call,Gene,pool no.
0.81,-0.636,0.865,inactive,PPP4C,1
1.01,0.691,0.587,inactive,HCN2,1
0.246,2.49,-0.143,inactive,HOMER1,1
0.476,0.196,0.565,inactive,NCOA4,1
0.483,0.914,1.57,inactive,REPS1,1
0.742,1.34,0.876,inactive,MTCH1,1
-1.05,-0.35,0.418,inactive,SATB2,1
0.77,1.36,0.389,inactive,ATP1B3,1
1.58,2.24,2.01,active,KANK4,1
-0.891,-0.495,0.00303,inactive,TLNRD1,1
-0.735,-0.32,-1.08,inactive,LOC440031 (retired record),1
0.875,-0.013,-0.529,inactive,ACVR1B,1
3.6,5.01,4.04,active,GBX2,1
0.383,1.01,0.258,inactive,RPS25,1
0.0328,-0.316,0.488,inactive,LST1,1
-0.485,-1.08,-1.17,inactive,SAMD5,1
-1.23,0.562,-0.701,inactive,FPR2,1
-0.706,0.204,0.154,inactive,NPVF,1
0.491,0.251,0.423,inactive,ITFG1,1
2.13,2.02,1.74,active,SPTSSA,1
-0.136,0.0603,-0.257,inactive,NAA15,1
-1.72,-1.88,-1.77,inactive,PTPDC1,1
-0.336,-0.115,0.062,inactive,IL17F,1
-0.586,-1.29,-1.01,inactive,FRMPD4,1
-1.29,-1.63,-1.25,inactive,LOC441095 (retired record),1
-0.66,0.329,-0.412,inactive,MOSPD2,1
0.611,0.18,0.854,inactive,MAK16,1
0.143,2.31,1.44,inactive,RAB34,1
0.776,2.51,1.15,inactive,LOC440339 (retired record),1
-0.328,-0.472,-0.0811,inactive,PPIAP87,1
-1.19,-0.241,-1.08,inactive,GRB14,1
1.26,1.4,0.921,inactive,LOC390683 (retired record),1
-0.72,1.68,-0.759,inactive,HBEGF,1
0.749,1.13,-0.0382,inactive,PDLIM1,1
-1.07,-0.891,-0.633,inactive,TNPO3,1
0.335,0.957,1.57,inactive,ZP3,1

Next part; the last 8 above are carried over.
"robust z-score, replicate 1","robust z-score, replicate 2","robust z-score, replicate 3",Call,Gene,pool no.
0.776,2.51,1.15,inactive,LOC440339 (retired record),1
-0.328,-0.472,-0.0811,inactive,PPIAP87,1
-1.19,-0.241,-1.08,inactive,GRB14,1
1.26,1.4,0.921,inactive,LOC390683 (retired record),1
-0.72,1.68,-0.759,inactive,HBEGF,1
0.749,1.13,-0.0382,inactive,PDLIM1,1
-1.07,-0.891,-0.633,inactive,TNPO3,1
0.335,0.957,1.57,inactive,ZP3,1
1.54,0.363,1.17,inactive,DOK1,1
1.94,1.25,0.621,inactive,URB2,1
-0.887,-0.693,-0.608,inactive,LINC02868,1
0.15,2.13,0.61,inactive,EDN3,1
0.834,0.729,0.452,inactive,VSNL1,1
1.65,3.72,2.8,active,COL9A1,1
0.869,1.38,1.41,inactive,PNLIP,1
2.43,1.21,3.44,active,NOVA1,1
0.238,-0.0898,0.435,inactive,POFUT4,1
1.4,2.66,0.32,inactive,JAG1,1
0.0909,-0.964,0.158,inactive,KIRREL3,1
1.49,1.85,1.74,inactive,PIEZO2,1
-0.543,-1.07,-1.03,inactive,PIEZO2,2
0.00864,1.36,0.974,inactive,EIF2AK2,1
-0.223,-0.0142,-0.208,inactive,KBTBD8,1
-0.0684,-0.958,-0.459,inactive,ADRB1,1
0.803,0.918,1.66,inactive,SPATA31G1,1
-0.341,-0.796,-0.797,inactive,LOC442385 (retired record),1
-1.11,-0.906,-0.747,inactive,GOLGA6L4,1
-0.887,-0.914,-0.919,inactive,PROM2,1
-1.03,-1.37,-1.03,inactive,P2RX5,1
-0.791,-0.407,-0.438,inactive,CHLSN,1
-2.51,-2.68,-2.29,active,STRA8,1
0.718,0.457,0.898,inactive,ATP6V1B2,1
0.0194,-0.0547,-0.597,inactive,SLC33A1,1
-0.534,-0.133,-0.317,inactive,ZNF800,1
-0.2,0.389,0.0694,inactive,OR2AG2,1
-0.497,-0.441,0.785,inactive,ZNF385C,1
1.72,0.679,1.57,inactive,ARHGEF39,1
1.46,1.51,1.58,inactive,ZNF433,1
0.0859,-0.714,-0.871,inactive,HHLA2,1
1.75,1.44,1.49,inactive,HAUS3,1
